# Test results as given in the supplement of paper PMC8728848.
# This is one part of the list.
# Assays:
# Experiment in all cases: glycan array binding signal (z-score within array); higher = stronger binding
# Conditions in all cases: glycan notation: IUPAC condensed, linker removed
# [1] = biological target: Neu5Ac(a2-6)Gal(b1-4)GlcNAc(b1-2)Man(a1-3)[Man(a1-6)]Man(b1-4)GlcNAc(b1-4)GlcNAc
# In short: (§1)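 Arrays were curated from the Consortium for Functional Glycomics database, 3228 in total, and kept only where the protein sequence was available. Binding is expressed as a within-array Z-score. This score was averaged across arrays of the same protein sequence at different concentrations or buffers and across linkers, and negative values can be read as non-binding.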
# [2] = biological target: Neu5Ac(a2-6)Gal(b1-4)GlcNAc(b1-2)Man(a1-3)[Neu5Ac(a2-3)Gal(b1-4)GlcNAc(b1-2)Man(a1-6)]Man(b1-4)GlcNAc(b1-4)GlcNAc
# In short: as §1
# [3] = biological target: Neu5Ac(a2-6)Gal(b1-4)GlcNAc(b1-2)Man(a1-3)[Neu5Ac(a2-6)Gal(b1-4)GlcNAc(b1-2)Man(a1-6)]Man(b1-4)GlcNAc(b1-4)GlcNAc
# In short: as §1
# [4] = biological target: Neu5Ac(a2-6)Gal(b1-4)GlcNAc(b1-2)Man(a1-3)[Neu5Ac(a2-6)Gal(b1-4)GlcNAc(b1-2)Man(a1-6)]Man(b1-4)GlcNAc(b1-4)[Fuc(a1-6)]GlcNAc
# In short: as §1
# [5] = biological target: Neu5Ac(a2-6)Gal(b1-4)GlcNAc(b1-2)Man(a1-6)Man(b1-4)GlcNAc(b1-4)GlcNAc
# In short: as §1
# [6] = biological target: Neu5Ac(a2-6)Gal(b1-4)GlcNAc(b1-2)Man(a1-6)[Gal(b1-4)GlcNAc(b1-2)Man(a1-3)]Man(b1-4)GlcNAc(b1-4)GlcNAc
# In short: as §1
# [7] = biological target: Neu5Ac(a2-6)Gal(b1-4)GlcNAc(b1-2)Man(a1-6)[GlcNAc(b1-2)Man(a1-3)]Man(b1-4)GlcNAc(b1-4)GlcNAc
# In short: as §1
# [8] = biological target: Neu5Ac(a2-6)Gal(b1-4)GlcNAc(b1-2)Man(a1-6)[Man(a1-3)]Man(b1-4)GlcNAc(b1-4)GlcNAc
# In short: as §1
# [9] = biological target: Neu5Ac(a2-6)Gal(b1-4)GlcNAc(b1-2)[Neu5Ac(a2-6)Gal(b1-4)GlcNAc(b1-4)]Man(a1-3)[GlcNAc(b1-4)][Neu5Ac(a2-6)Gal(b1-4)GlcNAc(b1-2)[Neu5Ac(a2-6)Gal(b1-4)GlcNAc(b1-6)]Man(a1-6)]Man(b1-4)GlcNAc(b1-4)GlcNAc
# In short: as §1
# [10] = biological target: Neu5Ac(a2-6)Gal(b1-4)GlcNAc(b1-2)[Neu5Ac(a2-6)Gal(b1-4)GlcNAc(b1-4)]Man(a1-3)[GlcNAc(b1-4)][Neu5Ac(a2-6)Gal(b1-4)GlcNAc(b1-4)Man(a1-6)]Man(b1-4)GlcNAc(b1-4)GlcNAc
# In short: as §1
# [11] = biological target: Neu5Ac(a2-6)Gal(b1-4)GlcNAc(b1-2)[Neu5Ac(a2-6)Gal(b1-4)GlcNAc(b1-6)]Man(a1-6)[Neu5Ac(a2-6)Gal(b1-4)GlcNAc(b1-2)Man(a1-3)][GlcNAc(b1-4)]Man(b1-4)GlcNAc(b1-4)GlcNAc
# In short: as §1
# [12] = biological target: Neu5Ac(a2-6)Gal(b1-4)GlcNAc(b1-3)Gal(b1-3)GlcNAc
# In short: as §1
# [13] = biological target: Neu5Ac(a2-6)Gal(b1-4)GlcNAc(b1-3)Gal(b1-4)GlcNAc
# In short: as §1
# [14] = biological target: Neu5Ac(a2-6)Gal(b1-4)GlcNAc(b1-3)Gal(b1-4)GlcNAc(b1-2)Man(a1-3)[Neu5Ac(a2-6)Gal(b1-4)GlcNAc(b1-3)Gal(b1-4)GlcNAc(b1-2)Man(a1-6)]GalNAc
# In short: as §1
# [15] = biological target: Neu5Ac(a2-6)Gal(b1-4)GlcNAc(b1-3)Gal(b1-4)GlcNAc(b1-3)Gal(b1-4)GlcNAc
# In short: as §1
# [16] = biological target: Neu5Ac(a2-6)Gal(b1-4)GlcNAc(b1-3)Gal(b1-4)GlcNAc(b1-3)Gal(b1-4)GlcNAc(b1-2)Man(a1-3)[Neu5Ac(a2-6)Gal(b1-4)GlcNAc(b1-3)Gal(b1-4)GlcNAc(b1-3)Gal(b1-4)GlcNAc(b1-2)Man(a1-6)]GalNAc
# In short: as §1
# [17] = biological target: Neu5Ac(a2-6)Gal(b1-4)GlcNAc(b1-3)Gal(b1-4)GlcNAc(b1-3)GalNAc
# In short: as §1
# [18] = biological target: Neu5Ac(a2-6)Gal(b1-4)GlcNAc(b1-3)Gal(b1-4)GlcNAc(b1-3)[Neu5Ac(a2-6)Gal(b1-4)GlcNAc(b1-3)Gal(b1-4)GlcNAc(b1-6)]GalNAc
# In short: as §1
# [19] = biological target: Neu5Ac(a2-6)Gal(b1-4)GlcNAc(b1-3)Gal(b1-4)GlcNAc(b1-6)[Gal(b1-3)]GalNAc
# In short: as §1
# [20] = biological target: Neu5Ac(a2-6)Gal(b1-4)GlcNAc(b1-3)Gal(b1-4)[Fuc(a1-3)]GlcNAc(b1-3)Gal(b1-4)[Fuc(a1-3)]GlcNAc
# In short: as §1
# [21] = biological target: Neu5Ac(a2-6)Gal(b1-4)GlcNAc(b1-3)GalNAc
# In short: as §1
# [22] = biological target: Neu5Ac(a2-6)Gal(b1-4)GlcNAc(b1-3)[Neu5Ac(a2-6)Gal(b1-4)GlcNAc(b1-6)]GalNAc
# In short: as §1
# [23] = biological target: Neu5Ac(a2-6)Gal(b1-4)GlcNAc(b1-6)GalNAc
# In short: as §1
# [24] = biological target: Neu5Ac(a2-6)Gal(b1-4)GlcNAc(b1-6)[Gal(b1-3)GlcNAc(b1-3)]Gal(b1-4)Glc
# In short: as §1
# [25] = biological target: Neu5Ac(a2-6)Gal(b1-4)GlcNAc(b1-6)[Gal(b1-3)]GalNAc
# In short: as §1
# [26] = biological target: Neu5Ac(a2-6)Gal(b1-4)GlcNAc6S
# In short: as §1
# [27] = biological target: Neu5Ac(a2-6)GalNAc
# In short: as §1
# [28] = biological target: Neu5Ac(a2-6)GalNAc(b1-4)GlcNAc
# In short: as §1
# [29] = biological target: Neu5Ac(a2-6)GalNAc(b1-4)GlcNAc6S
# In short: as §1
# [30] = biological target: Neu5Ac(a2-6)GlcNAc(b1-4)GlcNAc
# In short: as §1
binder,measurement,setting,value
"SfaEH (Escherichia coli), Q1RDG5 (protein) LLCRNNQTGQVFNSGDTSFRVNVSPVVQYDKSISVLDLSQLVSCQNEDSTGQNYDYLKILKGSGFSPALDTKTYGRLDFTSRPTGYARQLPLQFDLQVTEAFYQYGVWKPFPAKLYLYPAPGVFGKVINNGDLLATLYVNKFSTKGQEAGERNFTWRFYATNDVYIQTGTCRVSSNNVKVDLPSYPGGPVTVPLTVRCDQTQSVSYTLSGPVTGSGNTVFANTAASGSGGVGIQLSDNVGPVPAGQPRSLGQVGSSPVSLGLKASYALTGQASPTPGAVQSVINVTFSYN",glycan array binding signal (z-score),[1],1.08
same,glycan array binding signal (z-score),[2],-0.085
same,glycan array binding signal (z-score),[3],-0.893
same,glycan array binding signal (z-score),[4],-0.548
same,glycan array binding signal (z-score),[5],-0.928
same,glycan array binding signal (z-score),[6],-0.563
same,glycan array binding signal (z-score),[7],-0.61
same,glycan array binding signal (z-score),[8],-0.497
same,glycan array binding signal (z-score),[9],1.04
same,glycan array binding signal (z-score),[10],0.462
same,glycan array binding signal (z-score),[11],-0.534
same,glycan array binding signal (z-score),[12],-0.233
same,glycan array binding signal (z-score),[13],-0.825
same,glycan array binding signal (z-score),[14],0.499
same,glycan array binding signal (z-score),[15],0.269
same,glycan array binding signal (z-score),[16],0.387
same,glycan array binding signal (z-score),[17],-0.826
same,glycan array binding signal (z-score),[18],0.149
same,glycan array binding signal (z-score),[19],0.079
same,glycan array binding signal (z-score),[20],-0.154
same,glycan array binding signal (z-score),[21],-0.906
same,glycan array binding signal (z-score),[22],2.22
same,glycan array binding signal (z-score),[23],0.382
same,glycan array binding signal (z-score),[24],0.131
same,glycan array binding signal (z-score),[25],0.841
same,glycan array binding signal (z-score),[26],0.154
same,glycan array binding signal (z-score),[27],0.409
same,glycan array binding signal (z-score),[28],-0.131
same,glycan array binding signal (z-score),[29],-0.6
same,glycan array binding signal (z-score),[30],-0.508

# Quoted from the entries so far (2 entries):
binder,measurement,setting,value
"SfaEH (Escherichia coli), Q1RDG5 (protein) LLCRNNQTGQVFNSGDTSFRVNVSPVVQYDKSISVLDLSQLVSCQNEDSTGQNYDYLKILKGSGFSPALDTKTYGRLDFTSRPTGYARQLPLQFDLQVTEAFYQYGVWKPFPAKLYLYPAPGVFGKVINNGDLLATLYVNKFSTKGQEAGERNFTWRFYATNDVYIQTGTCRVSSNNVKVDLPSYPGGPVTVPLTVRCDQTQSVSYTLSGPVTGSGNTVFANTAASGSGGVGIQLSDNVGPVPAGQPRSLGQVGSSPVSLGLKASYALTGQASPTPGAVQSVINVTFSYN",glycan array binding signal (z-score),[29],-0.6
same,glycan array binding signal (z-score),[30],-0.508
